PubChem BioAssay AID504793, Drosophila RNAi Screening Center | 2011

Purpose: 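Genes required for cells to halt at G2/M after double-strand DNA breaks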 (primary screen)
System: Drosophila S2R+ cells
Reagent: long dsRNA against Drosophila genes, about 0.25 µg dsRNA per well
Timing: 4 days of dsRNA, then 4 hours of drug before read-out
Conditions: doxorubicin 0.5 µM for 4 hours to cause double-strand breaks, in cells also given a low, harmless dose of dsRNA against nbs to sensitise the assay
Read-out: 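Per-well count of mitotic cells stained for phospho-histone H3 after doxorubicin exposure, used as mitotic index; counts are raw and not normalised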
Reading the numbers: mitotic cells: higher = more cells in mitosis, weaker G2 arrest
Active means: 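a call needs confirmation in secondary tests, with other dsRNAs and a check of mitotic timing without damage, not just a high primary count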
Meaning of the calls: active = confirmed in follow-up tests; inactive = not confirmed
In all, the deposit lists about 23,000 reagents; shown is an unselected part of those with a known target gene and a result. Over the whole deposit, 62 (0.27%) were called active. 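Calls come from follow-up tests whose scores are not deposited, so confirmed genes may have low counts here; counts are not normalised per plate.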 Raw values are not corrected between plates. Names joined by + are all predicted targets of the reagent. No sequences are given here.

target gene | amplicon | mitotic cells, replicate 1 | Call
CG31301 | DRSC22164 | 11 | inactive
CG3448 | DRSC10368 | 4 | inactive
CG3448 | DRSC27580 | 10 | inactive
Dcr-2 | DRSC06992 | 4 | inactive
Dcr-2 | DRSC29436 | 3 | inactive
CG2256 | DRSC18220 | 11 | inactive
CG2256 | DRSC28187 | 5 | inactive
CG9628 | DRSC11082 | 7 | inactive
CG9628 | DRSC26359 | 5 | inactive
mIF3 | DRSC06290 | 5 | inactive
JhI-21 | DRSC02161 | 2 | inactive
JhI-21 | DRSC29181 | 6 | inactive
CG43773 | DRSC00287 | 4 | inactive
CG43773 | DRSC00288 | 2 | inactive
CG43773 | DRSC26834 | 5 | inactive
RunxB | DRSC20395 | 7 | inactive
RunxB | DRSC20525 | 11 | inactive
RunxB | DRSC20526 | 6 | inactive
RunxB | DRSC23150 | 15 | inactive
RunxB | DRSC28799 | 4 | inactive
Gr47b | DRSC05275 | 8 | inactive
CG4496 | DRSC02753 | 6 | inactive
CG1965 | DRSC12577 | 7 | inactive
CG1965 | DRSC21828 | 12 | inactive
PVRAP | DRSC10577 | 1 | inactive
CG8046 | DRSC07059 | 2 | inactive
Mal-A8 | DRSC07234 | 10 | inactive
CG17477 | DRSC15239 | 6 | inactive
CG17477 | DRSC26513 | 8 | inactive
FucT6 | DRSC19848 | 6 | inactive
FucT6 | DRSC26057 | 7 | inactive
ymp | DRSC13720 | 9 | inactive
ymp | DRSC14482 | 9 | inactive
l(3)05822 | DRSC16202 | 5 | inactive
l(3)05822 | DRSC24720 | 6 | inactive
CG6836 | DRSC10722 | 2 | inactive
CG6836 | DRSC26906 | 3 | inactive
Mlc1 | DRSC16740 | 24 | inactive
Mlc1 | DRSC27232 | 11 | inactive
CG11768 | DRSC23219 | 12 | inactive
CG11768 | DRSC29630 | 8 | inactive
CG33253 | DRSC19547 | 10 | inactive
CG33253 | DRSC20053 | 9 | inactive
Vps37B | DRSC12165 | 4 | inactive
CG33007 (retired record) | DRSC21845 | 12 | inactive
CG33007 (retired record) | DRSC28341 | 6 | inactive
pippin | DRSC04489 | 6 | inactive
BBS5 | DRSC12168 | 6 | inactive
BBS5 | DRSC27540 | 2 | inactive
CG7606 | DRSC16268 | 6 | inactive
Cyp6u1 | DRSC05015 | 10 | inactive
Cyp6u1 | DRSC26528 | 11 | inactive
Ald1 | DRSC14109 | 26 | active
Ald1 | DRSC25381 | 26 | active
CG6231 | DRSC15997 | 8 | inactive
svr | DRSC17293 | 5 | inactive
svr | DRSC18841 | 13 | inactive
svr | DRSC27397 | 6 | inactive
CG30491 | DRSC21472 | 7 | inactive
CG30491 | DRSC25369 | 7 | inactive
Galphao | DRSC07430 | 7 | inactive
Galphao | DRSC29710 | 4 | inactive
Tbca | DRSC15395 | 9 | inactive
Tbca | DRSC29064 | 3 | inactive
gish | DRSC16154 | 7 | inactive
Sodq | DRSC15924 | 10 | inactive
Sodq | DRSC27755 | 7 | inactive
CG11828 | DRSC14394 | 6 | inactive
CG11828 | DRSC22580 | 5 | inactive
CG11828 | DRSC29853 | 13 | inactive
CG13284 | DRSC02256 | 5 | inactive
how | DRSC25008 | 6 | inactive

A stretch of the results above, for reference:
target gene | amplicon | mitotic cells, replicate 1 | Call
CG33007 (retired record) | DRSC28341 | 6 | inactive
pippin | DRSC04489 | 6 | inactive
BBS5 | DRSC12168 | 6 | inactive
BBS5 | DRSC27540 | 2 | inactive
CG7606 | DRSC16268 | 6 | inactive
Cyp6u1 | DRSC05015 | 10 | inactive
Cyp6u1 | DRSC26528 | 11 | inactive

The results go on.
target gene | amplicon | mitotic cells, replicate 1 | Call
CG12744 | DRSC06164 | 11 | inactive
Toll-9 | DRSC11776 | 2 | inactive
CG2906 | DRSC06841 | 8 | inactive
Smu1 | DRSC15803 | 5 | inactive
CG33310 | DRSC01897 | 5 | inactive
CG33310 | DRSC24914 | 8 | inactive
trbl | DRSC11901 | 1 | inactive
CG2865 | DRSC18527 | 8 | inactive
CG2865 | DRSC18528 | 12 | inactive
CG2865 | DRSC28086 | 8 | inactive
fok | DRSC02103 | 9 | inactive
fok | DRSC23907 | 6 | inactive
CG9147 | DRSC03147 | 5 | inactive
CG9147 | DRSC27889 | 21 | inactive
Dscam1 | DRSC07407 | 4 | inactive
Dscam1 | DRSC21562 | 9 | inactive
Dscam1 | DRSC22383 | 10 | inactive
Dscam1 | DRSC29101 | 5 | inactive
par-1 | DRSC05792 | 4 | inactive
par-1 | DRSC06098 | 4 | inactive
par-1 | DRSC06616 | 5 | inactive
par-1 | DRSC07660 | 6 | inactive
par-1 | DRSC07661 | 4 | inactive
par-1 | DRSC36775 | 9 | inactive
ND-SGDH | DRSC11102 | 5 | inactive
MED20 | DRSC03463 | 6 | inactive
Or19b + Or19a | DRSC22604 | 13 | inactive
CG14355 | DRSC14818 | 8 | inactive
CG9920 | DRSC16578 | 6 | inactive
Ilk | DRSC11868 | 10 | inactive
CG32652 (retired record) | DRSC18942 | 8 | inactive
CG32652 (retired record) | DRSC22662 | 5 | inactive
CG32652 (retired record) | DRSC27195 | 6 | inactive
CG10948 | DRSC09806 | 4 | inactive
CG30479 | DRSC06735 | 10 | inactive
CG30479 | DRSC28843 | 4 | inactive
CG7509 | DRSC08596 | 3 | inactive
Fem-1 | DRSC07322 | 3 | inactive
Fem-1 | DRSC27014 | 4 | inactive
CG15812 | DRSC08479 | 2 | inactive
EndoB | DRSC07345 | 4 | inactive
Pgm2b | DRSC05978 | 3 | inactive
Pgm2b | DRSC26452 | 10 | inactive
Ogdh | DRSC09854 | 7 | inactive
Ogdh | DRSC09855 | 3 | inactive
CG16800 | DRSC02518 | 2 | inactive
CG16800 | DRSC28237 | 10 | inactive
cbc | DRSC06957 | 4 | inactive
GstE5 | DRSC06675 | 4 | inactive
CG15375 | DRSC18045 | 10 | inactive
CG15375 | DRSC29860 | 9 | inactive
CG8252 | DRSC07126 | 9 | inactive
CG8252 | DRSC29694 | 9 | inactive
Nepl17 | DRSC14880 | 6 | inactive
sw + Sdic4 + Sdic3 + 2 more | DRSC20696 | 35 | inactive
sw + Sdic4 + Sdic3 + 2 more | DRSC29154 | 15 | inactive
ppk9 | DRSC04134 | 5 | inactive
ppk9 | DRSC04135 | 9 | inactive
Jon25Biii | DRSC03115 | 8 | inactive
Jon25Biii | DRSC25069 | 13 | inactive
Gr9a | DRSC22506 | 10 | inactive
garz | DRSC07193 | 2 | inactive
CG16853 | DRSC01877 | 5 | inactive
CG10959 | DRSC17769 | 8 | inactive
CG10959 | DRSC29120 | 6 | inactive
Xpc | DRSC07654 | 11 | inactive
PlexA | DRSC17220 | 9 | inactive
Arpc2 | DRSC02113 | 7 | inactive
